Laboratory results: PubChem BioAssay AID1159597 (NIAID, 2016)

Test: 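Knock-downs that change TNF-alpha promoter reporter output after LPS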
Cell system: human THP-1 B5 reporter clone (monocytic leukaemia line), PMA-differentiated to macrophage-like cells
Reagents: single siRNA against human genes
Timing: LPS for 4 h before read-out; assayed 48 to 72 h after siRNA transfection
Challenge: LPS (Salmonella minnesota R595) for 4 h; concentration not given
Measured: 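TNF promoter dual luciferase ratio after 4 h LPS, given as a per-plate robust z-score, mean of replicates per siRNA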
Reading the numbers: TNF reporter z-score: higher = stronger TNF promoter activity after LPS
Rule for the call: In these data the active calls have TNF reporter z-score, replicate mean at about -1.5 or lower, or at about 1.53 or higher
Calls: active = clear shift in reporter, either direction; inactive = little shift in reporter
This is an unselected part of 756 deposited reagents. Of all reagents, 140 (19%) got an active call. 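Calls mark clear shifts in either direction, lowered or raised; calls are per siRNA, gene-level medians over six siRNAs not deposited.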 Unmarked entries are inactive. The numbers tell different reagents against one gene apart. Not stated in the record: the amount of reagent.

gene knocked down	reagent no.	TNF reporter z-score, replicate mean
RIPK3	1	-0.335
RIPK3	2	-0.327
RIPK3	3	0.0916
RIPK3	4	-0.642
RIPK3	5	0.459
RIPK3	6	0.28
MAP2K7	1	-1.3
MAP2K7	2	-1.89 (active)
MAP2K7	3	-0.751
MAP2K7	4	-0.957
MAP2K7	5	-2.44 (active)
MAP2K7	6	-0.427
ELK4	1	-0.961
ELK4	2	-0.532
ELK4	3	0.361
ELK4	4	0.404
ELK4	5	-0.631
ELK4	6	-1.15
ITGAX	1	-1.13
ITGAX	2	0.0372
ITGAX	3	-0.423
ITGAX	4	-2.56 (active)
ITGAX	5	-1.25
ITGAX	6	-0.645
CYLD	1	-2.81 (active)
CYLD	2	-4.25 (active)
CYLD	3	-0.363
CYLD	4	-0.998
CYLD	5	-2.24 (active)
CYLD	6	-1.73 (active)

Next part, starting with the last 5 of the part before.
gene knocked down	reagent no.	TNF reporter z-score, replicate mean
CYLD	2	-4.25 (active)
CYLD	3	-0.363
CYLD	4	-0.998
CYLD	5	-2.24 (active)
CYLD	6	-1.73 (active)
AKT3	1	-0.111
AKT3	2	-1.62 (active)
AKT3	3	0.443
AKT3	4	0.523
AKT3	5	-0.668
AKT3	6	0.537
MAPK10	1	0.123
MAPK10	2	-0.904
MAPK10	3	-0.133
MAPK10	4	-0.438
MAPK10	5	0.424
MAPK10	6	-0.228
PIK3CB	1	-0.753
PIK3CB	2	-0.262
PIK3CB	3	-1.04
PIK3CB	4	0.463
PIK3CB	5	0.834
PIK3CB	6	0.0938
PIK3R3	1	-0.805
PIK3R3	2	0.324
PIK3R3	3	0.155
PIK3R3	4	-1.49
PIK3R3	5	0.217
PIK3R3	6	-2.54 (active)
PELI1	1	-0.361
PELI1	2	-0.544
PELI1	3	2 (active)
PELI1	4	-0.909
PELI1	5	-0.14
PELI1	6	-0.309
SP1	1	-3.9 (active)
SP1	2	-1.61 (active)
SP1	3	0.877
SP1	4	1.71 (active)
SP1	5	0.973
SP1	6	-0.392
MAPK8	1	-0.249
MAPK8	2	-1.1
MAPK8	3	0.674
MAPK8	4	-0.151
MAPK8	5	-1.19
MAPK8	6	0.43
IL33R	1	-0.189
IL33R	2	-1.06
IL33R	3	0.561
IL33R	4	0.778
IL33R	5	-0.207
IL33R	6	-0.0549
